Measured values from US20180036234A1, “TREATMENT OF BONE FRACTURES AND DEFECTS” (Entera Bio Ltd., priority 2015, published 2018).
At least one read-out could not be matched to a standard name with certainty.

Test: Pharmacokinetic study of oral teriparatide tablet (0.75 mg) in healthy volunteers
Assay type: in vivo, human
Details: oral tablet 0.75 mg teriparatide with SNAC and SBTI; plasma
Method: An open label comparative pharmacokinetic study was performed in healthy volunteers over the course of 3 months. Each volunteer received—in each of two visits—the same oral tablet containing 0.75 mg of teriparatide, a recombinant form of parathyroid hormone (1-34).
The formulation was composed of teriparatide (0.75 mg), SNAC (sodium 8-N-(2-hydroxybenzoyl) aminocaprylate), soybean trypsin inhibitor (SBTI) and a small amount of magnesium stearate.
Tablets were administered in the morning after an 8-hour overnight fast and immediately followed by 150 ml of water. At each visit a standard meal was provided 3 hours after drug administration. […] There was a two weeks period between the visits.
To determine parathyroid hormone(1-34) (PTH(1-34)) concentrations, blood samples (4 ml each) were drawn via an indwelling catheter from the forearm vein at predetermined time points during each visit. The cannula was flushed with 1.5 ml normal saline after each sampling. In addition, to avoid sample dilution, 1 ml of blood was drawn and discarded before the next sample. […] PTH(1-34) levels were measured using an IDS-iSYS automated assay for the measurement of intact PTH(1-34) in human plasma or serum.

For `CC[C@H](C)[C@H](NC(=O)[C@H](CCC(=O)O)NC(=O)[C@H](CO)NC(=O)[C@@H](NC(=O)[C@@H](N)CO)C(C)C)C(=O)N[C@@H](CCC(N)=O)C(=O)N[C@@H](CC(C)C)C(=O)N[C@@H](CCSC)C(=O)N[C@@H](Cc1cnc[nH]1)C(=O)N[C@@H](CC(N)=O)C(=O)N[C@@H](CC(C)C)C(=O)NCC(=O)N[C@@H](CCCCN)C(=O)N[C@@H](Cc1cnc[nH]1)C(=O)N[C@@H](CC(C)C)C(=O)N[C@@H](CC(N)=O)C(=O)N[C@@H](CO)C(=O)N[C@@H](CCSC)C(=O)N[C@@H](CCC(=O)O)C(=O)N[C@@H](CCCN=C(N)N)C(=O)N[C@H](C(=O)N[C@@H](CCC(=O)O)C(=O)N[C@@H](Cc1c[nH]c2ccccc12)C(=O)N[C@@H](CC(C)C)C(=O)N[C@@H](CCCN=C(N)N)C(=O)N[C@@H](CCCCN)C(=O)N[C@@H](CCCCN)C(=O)N[C@@H](CC(C)C)C(=O)N[C@@H](CCC(N)=O)C(=O)N[C@@H](CC(=O)O)C(=O)N[C@H](C(=O)N[C@@H](Cc1cnc[nH]1)C(=O)N[C@@H](CC(N)=O)C(=O)N[C@@H](Cc1ccccc1)C(=O)O)C(C)C)C(C)C` [teriparatide], the “time of peak concentration (Cmax) after administration” value was at most 20 min.
